For test [1], the target named is T1, FLAG-RalA (UniProt P11233).
T1 sequence: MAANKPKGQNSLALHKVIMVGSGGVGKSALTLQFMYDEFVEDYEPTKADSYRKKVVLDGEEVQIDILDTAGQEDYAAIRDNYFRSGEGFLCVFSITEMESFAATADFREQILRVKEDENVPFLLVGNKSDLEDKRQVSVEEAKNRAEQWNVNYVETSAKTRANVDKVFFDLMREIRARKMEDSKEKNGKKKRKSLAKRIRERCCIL
In words: co-IP; RalA-Flag constructs (deletions Δ80–120 and Δ121–160) immunoprecipitated with ANXA2-HA; cells not given.

Chains of the proteins cited; added tags and fusions are not shown.
UniProt P07355: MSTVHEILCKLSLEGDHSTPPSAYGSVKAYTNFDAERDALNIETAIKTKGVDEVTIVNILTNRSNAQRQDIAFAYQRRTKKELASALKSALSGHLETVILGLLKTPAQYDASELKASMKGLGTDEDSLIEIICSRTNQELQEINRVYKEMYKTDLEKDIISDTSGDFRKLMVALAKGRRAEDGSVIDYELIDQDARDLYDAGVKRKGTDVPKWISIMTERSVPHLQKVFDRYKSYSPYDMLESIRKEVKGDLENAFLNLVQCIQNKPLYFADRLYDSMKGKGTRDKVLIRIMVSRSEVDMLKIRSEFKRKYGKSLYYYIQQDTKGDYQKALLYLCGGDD

The target in test [2] is T1, FLAG-RalA. Description: co-IP; MDA231 cells with transient RalA overexpression; Pierce Classic Magnetic IP/Co-IP Kit, antibody for FLAG, western blot. For orientation: Immunoblotting shows a protein as a band on a membrane.
The target in another test is GST fusion ANXA2 protein (UniProt P07355). Description: pull-down; GST or GST-ANXA2 recombinant protein on anti-GST Tag magnetic beads, incubated with His-RalA recombinant protein; eluate to western blot; both purified.
Test [3] addresses Annexin A2 (ANXA2), endogenous (human (endogenous in MDA231)) (UniProt P07355). Description: co-IP; endogenous proteins in BC cells; ANXA2-Src also in control or RalA overexpression cells (interaction enhanced) and in DMSO or RBC8 treated cells (binding decreased).

These are yes or no findings as the source states them, for the method shown. For some of these results: Binding seen in cells or lysates may run through a third protein. Some results given as binding are weak or reduced against the parent protein; the word gives no strength. For some of these results: Tags and fused reporters may be left off the sequences shown.

As for ANXA2-HA (from UniProt P07355 1-339), the binding entry in the test with FLAG-RalA [1] is on record as “binds”.

Consider “Annexin A2 (ANXA2), endogenous (from UniProt P07355 1-339)”, for which the binding entry in the test with FLAG-RalA [2] is “binds”.

B1: 6*His fusion RalA protein (protein, UniProt P11233 1-206)
chain: T1 sequence
On to B1, for which the binding result with GST fusion ANXA2 protein is on record as “binds”.

B2: RalA, endogenous (protein, UniProt P11233 1-206)
chain: T1 sequence
As for B2, the binding result in test [3] is given as “binds”.

(Values after PMC9558416.)
